From patent publication US12202805B2, “Process for preparing (5S)-{[2-(4-carboxyphenyl)ethyl] |2-(2-{|3-chloro-4'-(trifluoromethyl)biphenyl-4-yl]methoxy}phenyl)ethyl]aminol-5,6,7,8-tetrahydroquinoline-2-carboxylic acid and its crystalline forms for use as pharmaceutically active compound” (Bayer Aktiengesellschaft, priority 2021, dated 2025)
“And” between values parts separate entries of the source, which are not always exact repeats. Equal values may be shown once. The source gives many values for each of these; only a part stands here.

Tested on: thromboxane A2 challenged PAH-minipig
Test: Haemodynamics in the anesthetized thromboxane challenged minipig, intratracheal dry powder (PAP, BP)
Assay type: in vivo, Göttingen Minipigs
Settings: 375 μg/kg i.t.
Procedure: Healthy Göttingen Minipigs® Ellegaard (Ellegaard, Denmark) of both sexes and having a weight of 2-6 kg were used. The animals were sedated by i.m. administration of about 25 mg/kg ketamine and about 10 mg/kg azaperone. Anaesthesia was initiated by i.v. administration of about 2 mg/kg ketamine and about 0.3 mg/kg midazolam. Maintenance of anaesthesia was by i.v. administration of about 7.5-30 mg/kg/h ketamine and about 1-4 mg/kg/h midazolam (rate of infusion 1-4 ml/kg/h) and about 150 μg/kg/h pancuronium bromide (for example Pancuronium-Actavis). After intubation, the animals were ventilated by the ventilator at a constant respiratory volume (10-12 ml/kg, 35 breaths/min; Avea®, Viasys Healthcare, USA, or Engström Carestation, GE Healthcare, Freiburg, Germany) such that an end-tidal CO2 concentration of about 5% was achieved. Ventilation was performed with room air, enriched with about 40% oxygen (normoxia). For the measurement of the haemodynamic parameters such as pulmonary arterial pressure (PAP), blood pressure (BP) and heart rate (HR), catheters were inserted into the carotid artery to measure the blood pressure, and a Swan-Ganz® catheter was introduced in a flow-directed manner via the jugular vein into the pulmonary artery. The haemodynamic signals were recorded and evaluated by means of pressure transducers (Combitransducer, B. Braun, Melsungen, Germany)/amplifiers and Ponemah® as data acquisition software.
As reference pure Lactose vehicle was applied in the beginning of each experiment.

## O.O.O.O=C(O)c1ccc(CCN(CCc2ccccc2OCc2ccc(-c3ccc(C(F)(F)F)cc3)cc2Cl)[C@H]2CCCc3nc(C(=O)O)ccc32)cc1.O=C(O)c1ccc(CCN(CCc2ccccc2OCc2ccc(-c3ccc(C(F)(F)F)cc3)cc2Cl)[C@H]2CCCc3nc(C(=O)O)ccc32)cc1 [example 6e, (5S)—{[2-(4-Carboxyphenyl)ethyl][2-(2-{[3-chloro-4′-(trifluoromethyl)biphenyl-4-yl]methoxy}phenyl)-ethyl]amino}-5,6,7,8-tetrahydroquinoline-2-carboxylic acid sesquihydrate]
Time 20 min, sesquihydrate
  PAP(mean): 37.4 mmHg and 39.8 mmHg
Time 30 min, sesquihydrate
  PAP(mean): 41.4 mmHg and 36.8 mmHg and 41.2 mmHg
Time 40 min, sesquihydrate
  BP (mean): 109 mmHg and 118 mmHg
  PAP(mean): 41.0 mmHg and 37.4 mmHg and 41.3 mmHg
Time 50 min, sesquihydrate
  BP (mean): 101 mmHg and 114 mmHg and 119 mmHg
  PAP(mean): 40.9 mmHg and 38.1 mmHg and 40.8 mmHg
Time 60 min
  BP (mean): 102 mmHg
Time 60 min, sesquihydrate
  BP (mean): 116 mmHg and 118 mmHg
  PAP(mean): 40.4 mmHg and 39.5 mmHg and 40.7 mmHg
Time 70 min
  BP (mean): 99 mmHg
Time 70 min, sesquihydrate
  BP (mean): 111 mmHg and 117 mmHg
  PAP(mean): 40.7 mmHg and 38.7 mmHg and 39.6 mmHg
Time 80 min, sesquihydrate
  BP (mean): 101 mmHg and 112 mmHg and 116 mmHg
  PAP(mean): 36.5 mmHg and 37.6 mmHg and 35.4 mmHg
Time 90 min, sesquihydrate
  BP (mean): 101 mmHg and 114 mmHg and 115 mmHg
  PAP(mean): 34.3 mmHg and 36.4 mmHg and 30.8 mmHg
Time 100 min, sesquihydrate
  BP (mean): 101 mmHg and 114 mmHg and 115 mmHg
  PAP(mean): 32.3 mmHg and 35.7 mmHg and 28.6 mmHg
Time 110 min, sesquihydrate
  BP (mean): 99 mmHg and 120 mmHg and 114 mmHg
  PAP(mean): 30.8 mmHg and 35.0 mmHg and 27.5 mmHg
Time 120 min
  BP (mean): 99 mmHg
Time 120 min, sesquihydrate
  BP (mean): 121 mmHg and 114 mmHg
  BP, % changes vs. prevalues: 104.6% and 96.1%
  PAP(mean): 30.3 mmHg and 29.0 mmHg and 26.6 mmHg
Time 130 min
  BP (mean): 100 mmHg
Time 130 min, sesquihydrate
  BP (mean): 122 mmHg and 114 mmHg
  BP, % changes vs. prevalues: 100.4% and 105.5% and 96.1%
  PAP(mean): 29.0 mmHg and 30.3 mmHg and 26.9 mmHg
  PAP, % changes vs. prevalues: 76.4% and 66.8%
Time 140 min, sesquihydrate
  BP (mean): 101 mmHg and 121 mmHg and 115 mmHg
  BP, % changes vs. prevalues: 101.4% and 104.6% and 96.9%
  PAP(mean): 28.0 mmHg and 28.3 mmHg and 25.1 mmHg
  PAP, % changes vs. prevalues: 67.3% and 71.4% and 62.2%
Time 150 min
  BP (mean): 99 mmHg
Time 150 min, sesquihydrate
  BP (mean): 119 mmHg and 115 mmHg
  BP, % changes vs. prevalues: 99.4% and 102.9% and 96.9%
  PAP(mean): 25.8 mmHg and 30.8 mmHg and 25.3 mmHg
  PAP, % changes vs. prevalues: 62.1% and 77.7% and 62.8%
Time 160 min
  BP (mean): 99 mmHg
Time 160 min, sesquihydrate
  BP (mean): 123 mmHg and 114 mmHg
  BP, % changes vs. prevalues: 99.4% and 106.3% and 96.1%
  PAP(mean): 25.1 mmHg and 30.8 mmHg and 23.9 mmHg
  PAP, % changes vs. prevalues: 60.4% and 77.7% and 59.3%
Time 170 min
  BP (mean): 98 mmHg
Time 170 min, sesquihydrate
  BP (mean): 116 mmHg and 113 mmHg
  BP, % changes vs. prevalues: 98.4% and 100.3% and 95.2%
  PAP(mean): 25.5 mmHg and 30.6 mmHg and 24.6 mmHg
  PAP, % changes vs. prevalues: 61.3% and 77.3% and 61.0%
Time 180 min
  BP (mean): 99 mmHg
Time 180 min, sesquihydrate
  BP (mean): 117 mmHg and 116 mmHg
  BP, % changes vs. prevalues: 99.4% and 101.1% and 97.7%
  PAP(mean): 25.0 mmHg and 30.8 mmHg and 24.2 mmHg
  PAP, % changes vs. prevalues: 60.0% and 77.6% and 60.1%
Time 190 min
  BP (mean): 97 mmHg
Time 190 min, sesquihydrate
  BP (mean): 123 mmHg and 114 mmHg
  BP, % changes vs. prevalues: 97.4% and 106.3% and 96.1%
  PAP(mean): 24.3 mmHg and 32.9 mmHg and 23.6 mmHg
  PAP, % changes vs. prevalues: 58.5% and 83.0%
Time 200 min
  BP (mean): 97 mmHg
Time 200 min, sesquihydrate
  BP (mean): 119 mmHg and 114 mmHg
  BP, % changes vs. prevalues: 97.4% and 102.9% and 96.1%
  PAP(mean): 24.0 mmHg and 31.5 mmHg and 23.6 mmHg
  PAP, % changes vs. prevalues: 57.6% and 79.4% and 58.5%
Time 210 min
  BP (mean): 97 mmHg
Time 210 min, sesquihydrate
  BP (mean): 119 mmHg and 112 mmHg
  BP, % changes vs. prevalues: 97.4% and 102.9% and 94.4%
  PAP(mean): 24.3 mmHg and 31.0 mmHg and 23.5 mmHg
  PAP, % changes vs. prevalues: 58.3% and 78.3%
Time 220 min
  BP (mean): 97 mmHg
Time 220 min, sesquihydrate
  BP (mean): 118 mmHg and 111 mmHg
  BP, % changes vs. prevalues: 97.4% and 102.0% and 93.5%
  PAP(mean): 24.2 mmHg and 31.3 mmHg and 22.9 mmHg
  PAP, % changes vs. prevalues: 58.3% and 79.0% and 56.8%
Time 230 min
  BP (mean): 96 mmHg
Time 230 min, sesquihydrate
  BP (mean): 116 mmHg and 112 mmHg
  BP, % changes vs. prevalues: 96.4% and 100.3% and 94.4%
  PAP(mean): 24.0 mmHg and 31.5 mmHg and 23.5 mmHg
  PAP, % changes vs. prevalues: 57.8% and 79.6% and 58.3%
Time 240 min
  BP (mean): 99 mmHg
Time 240 min, sesquihydrate
  BP (mean): 115 mmHg and 109 mmHg
  BP, % changes vs. prevalues: 99.4% and 91.8%
  PAP(mean): 24.5 mmHg and 29.8 mmHg and 22.6 mmHg
  PAP, % changes vs. prevalues: 58.9% and 75.3% and 56.1%
Time 250 min, sesquihydrate
  BP (mean): 97 mmHg and 111 mmHg and 110 mmHg
  BP, % changes vs. prevalues: 97.4% and 96.0% and 92.7%
  PAP(mean): 23.9 mmHg and 29.8 mmHg and 22.8 mmHg
  PAP, % changes vs. prevalues: 57.4% and 75.3% and 56.6%
Time 260 min, sesquihydrate
  BP (mean): 97 mmHg and 110 mmHg and 107 mmHg
  BP, % changes vs. prevalues: 97.4% and 95.1% and 90.2%
  PAP(mean): 23.5 mmHg and 30.3 mmHg and 22.0 mmHg
  PAP, % changes vs. prevalues: 56.4% and 76.5% and 54.6%
Time 270 min
  BP (mean): 98 mmHg
Time 270 min, sesquihydrate
  BP (mean): 109 mmHg and 108 mmHg
  BP, % changes vs. prevalues: 98.4% and 94.2% and 91.0%
  PAP(mean): 24.6 mmHg and 30.0 mmHg and 22.2 mmHg
  PAP, % changes vs. prevalues: 59.1% and 75.7% and 55.2%
Time 280 min
  BP (mean): 97 mmHg
Time 280 min, sesquihydrate
  BP (mean): 109 mmHg and 105 mmHg
  BP, % changes vs. prevalues: 97.4% and 94.2% and 88.5%
  PAP(mean): 23.9 mmHg and 29.6 mmHg and 21.9 mmHg
  PAP, % changes vs. prevalues: 57.4% and 74.6% and 54.4%
Time 290 min
  BP (mean): 94 mmHg
Time 290 min, sesquihydrate
  BP (mean): 108 mmHg and 105 mmHg
  BP, % changes vs. prevalues: 94.4% and 93.4% and 85.9%
  PAP(mean): 25.3 mmHg and 29.1 mmHg and 22.5 mmHg
  PAP, % changes vs. prevalues: 60.8% and 73.3% and 55.8%
Time 300 min
  BP (mean): 97 mmHg
Time 300 min, sesquihydrate
  BP (mean): 108 mmHg and 105 mmHg
  BP, % changes vs. prevalues: 101.4% and 90.8% and 84.3%
  PAP(mean): 25.1 mmHg and 28.5 mmHg and 21.6 mmHg
  PAP, % changes vs. prevalues: 60.3% and 72.0% and 53.7%
